Structures are written as SMILES.

The nature of this data set: Assessment of the strength of the joins on thermoplastic rubber (TR). The conditions noted are these: 24 hours after bonding.

Turning to `C=C(C#N)C(=O)OCC` [ethyl cyanoacrylate], the “failure mode of the join” value was “cohesion failure in the rubber”. For the setting “20 mm/min”, this compound displayed a separation resistance of 8.3 kN/m.

The record behind these values is patent US20040013614A1, “Acrylic-based adhesive composition” (priority 2000, published 2004).
